Measurements reported in PubChem BioAssay AID1259272 (Sanger Institute, 2017)

Assay: 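Kinome-wide siRNA search for genes whose silencing boosts targeted drug effects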 (primary screen)
Cells: SW1116 human colorectal cancer cells
Knock-down reagent: siRNA pool against human genes
Challenge: anchor drugs BYL719 (1 µM), cetuximab (5 µg/ml) or trametinib (10 nM), or DMSO vehicle; exposure length not given
Measured: 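Replicate-averaged viability versus control-pool wells, with a robust z-score for siRNA alone and a per-drug synergy score (BYL719, cetuximab, trametinib)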
Direction: viability z-score, no drug: higher = more cells remaining; strongly negative means essential gene; viability, no drug: higher = more viable cells; synergy score with BYL719 and synergy score with cetuximab and synergy score with trametinib: higher = stronger synthetic-lethal synergy with the drug
Call rule: 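a robust z-score under -3 with siRNA and no drug marks the gene essential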
Meaning of the calls: active = essential (knock-down alone); inactive = no change
The whole screen tested 794 reagents; below is a part drawn at random. 7 of them (0.88%) count as active. 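Essential calls reflect knock-down without drug only, not synergy with drugs; drug exposure length not given.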 A number with no mark means an inactive call. No viability above 1 is reported: the scale is capped. Reagent sequences are not shown. Not given: the amount of reagent, the time to read-out.

Target gene	viability z-score, no drug	viability, no drug (fraction of control)	synergy score with BYL719	synergy score with cetuximab	synergy score with trametinib
PIP4K2B	0.134	0.925	-0.0155	0.0218	0.176
PPP2R1A	0.842	1	-0.0788	0.0599	-0.0716
MYO3B	-1.65	0.735	-0.264	-0.249	-0.0633
PRKCE	-1.07	0.797	-0.122	-0.0552	-0.012
STK33	-1.63	0.737	-0.179	-0.0268	0.0617
NPR2	0.842	1	-0.00654	-0.0757	-0.0465
ATP23	0.842	1	-0.0788	-0.0757	0.0333
CSNK1E	0.636	0.978	0.171	0.209	0.0506
EPHA2	-0.00835	0.909	-0.136	-0.0412	-0.181
WEE1	-2.68	0.625	-0.0148	-0.00097	0.0448
CSNK1A1L	-0.178	0.891	-0.169	-0.126	-0.0587
MAPKAPK2	-1.84	0.715	-0.112	-0.238	-0.0205
EFNA4	-1.46	0.755	-0.0545	-0.195	-0.0112
PLK2	0.2	0.932	-0.0625	-0.0744	-0.101
SGK2	-0.288	0.88	-0.061	-0.187	0.0245
MKNK1	0.842	1	-0.0788	0.00779	0.0307
ROS1	-0.244	0.884	-0.0443	-0.0676	0.179
MARK4	-0.598	0.847	-0.00396	0.0486	0.0925

Entries above whose target name begins with S or s:
Target gene	viability z-score, no drug	viability, no drug (fraction of control)	synergy score with BYL719	synergy score with cetuximab	synergy score with trametinib
STK33	-1.63	0.737	-0.179	-0.0268	0.0617
SGK2	-0.288	0.88	-0.061	-0.187	0.0245

Further reagents follow.
Target gene	viability z-score, no drug	viability, no drug (fraction of control)	synergy score with BYL719	synergy score with cetuximab	synergy score with trametinib
SIK3	0.426	0.956	-0.0765	-0.0384	0.134
PAK1	-1.48	0.753	-0.0698	0.0829	0.0336
RAD21	0.842	1	-0.0788	-0.0757	-0.275
ZAP70	-1.05	0.798	-0.17	-0.0376	0.0645
NUAK1	-1.93	0.705	-0.132	-0.0798	0.0228
MARK3	0.355	0.948	-0.0365	0.119	0.212
STK40	-0.505	0.857	-0.109	-0.123	-0.1
NEK6	0.842	1	-0.0788	-0.0757	-0.0841
PRKAR2A	0.785	0.994	0.0306	0.203	0.0946
ERN2	0.432	0.956	-0.0531	0.0267	0.0802
ROCK2	0.824	0.998	-0.0805	-0.0774	0.125
TAF1	0.479	0.961	0.0178	0.0261	0.0528
ETNK1	0.397	0.953	-0.122	0.141	0.0607
RIPK1	0.71	0.986	-0.0426	0.0281	0.0807
MAP3K5	0.842	1	0.154	0.0617	0.19
NUP62	0.842	1	-0.0639	-0.0757	0.126
RPS6KC1	0.783	0.994	-0.0846	-0.015	0.0344
WNK1	0.842	1	0.0578	0.0621	0.214
SGK1	0.842	1	-0.0788	0.0618	0.262
MAP3K2	-0.53	0.854	-0.14	-0.0279	-0.156
CDC42BPA	-1.31	0.771	-0.138	-0.145	-0.012
MUSK	-2.71	0.622	-0.124	0.0457	0.101
CDC7	-3.79 (active)	0.507	-0.16	-0.118	0.00104
DLG3	-1.57	0.743	-0.214	-0.0411	-0.0903
DDR2	0.842	1	-0.0788	0.0268	-0.023
TRIB2	-2.48	0.646	-0.039	-0.156	0.0372
BRWD1	0.723	0.987	-0.0196	-0.065	-0.0434
TLK2	0.842	1	-0.0232	-0.0757	-0.168
IPPK	0.842	1	0.00616	-0.00286	0.0979
MAPK6	0.0816	0.919	0.0239	-0.0697	0.0872
CASK	-1.18	0.785	-0.242	-0.0656	0.017
VRK2	0.842	1	0.123	0.0587	0.143
